Experimental data from the supplement of paper PMC11732987, “Enantioselective OTUD7B fragment discovery through chemoproteomics screening and high-throughput optimisation” (Communications Chemistry, 2025).
The other results are listed elsewhere or left out. The data scatter; read single values as rough.

By UniProt entry, the sequences of proteins in these tests, tags left out. Where a name states a change or a piece, a line headed by the entry shows the natural chain unless it says otherwise. Residues count along the entry.
UniProt Q99615, 2-26: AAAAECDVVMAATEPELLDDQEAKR
UniProt Q8IYB7, 201-222: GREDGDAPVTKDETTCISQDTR
UniProt Q14195: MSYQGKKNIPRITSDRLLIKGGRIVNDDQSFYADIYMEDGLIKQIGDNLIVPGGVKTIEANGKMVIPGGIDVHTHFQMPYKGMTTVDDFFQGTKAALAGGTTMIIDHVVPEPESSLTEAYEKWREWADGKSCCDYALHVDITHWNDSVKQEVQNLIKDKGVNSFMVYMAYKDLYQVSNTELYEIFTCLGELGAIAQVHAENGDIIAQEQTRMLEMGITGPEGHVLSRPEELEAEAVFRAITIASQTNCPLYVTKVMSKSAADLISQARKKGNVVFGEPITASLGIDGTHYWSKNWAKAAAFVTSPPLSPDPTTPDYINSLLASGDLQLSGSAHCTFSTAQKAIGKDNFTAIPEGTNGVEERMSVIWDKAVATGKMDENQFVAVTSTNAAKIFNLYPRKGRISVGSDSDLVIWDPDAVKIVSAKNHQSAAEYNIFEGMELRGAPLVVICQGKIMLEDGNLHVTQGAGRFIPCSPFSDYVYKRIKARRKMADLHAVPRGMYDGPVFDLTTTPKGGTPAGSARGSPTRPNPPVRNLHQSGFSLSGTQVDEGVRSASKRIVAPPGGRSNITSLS
UniProt Q9Y295, 185-206: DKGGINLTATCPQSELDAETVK
UniProt Q5VZ89: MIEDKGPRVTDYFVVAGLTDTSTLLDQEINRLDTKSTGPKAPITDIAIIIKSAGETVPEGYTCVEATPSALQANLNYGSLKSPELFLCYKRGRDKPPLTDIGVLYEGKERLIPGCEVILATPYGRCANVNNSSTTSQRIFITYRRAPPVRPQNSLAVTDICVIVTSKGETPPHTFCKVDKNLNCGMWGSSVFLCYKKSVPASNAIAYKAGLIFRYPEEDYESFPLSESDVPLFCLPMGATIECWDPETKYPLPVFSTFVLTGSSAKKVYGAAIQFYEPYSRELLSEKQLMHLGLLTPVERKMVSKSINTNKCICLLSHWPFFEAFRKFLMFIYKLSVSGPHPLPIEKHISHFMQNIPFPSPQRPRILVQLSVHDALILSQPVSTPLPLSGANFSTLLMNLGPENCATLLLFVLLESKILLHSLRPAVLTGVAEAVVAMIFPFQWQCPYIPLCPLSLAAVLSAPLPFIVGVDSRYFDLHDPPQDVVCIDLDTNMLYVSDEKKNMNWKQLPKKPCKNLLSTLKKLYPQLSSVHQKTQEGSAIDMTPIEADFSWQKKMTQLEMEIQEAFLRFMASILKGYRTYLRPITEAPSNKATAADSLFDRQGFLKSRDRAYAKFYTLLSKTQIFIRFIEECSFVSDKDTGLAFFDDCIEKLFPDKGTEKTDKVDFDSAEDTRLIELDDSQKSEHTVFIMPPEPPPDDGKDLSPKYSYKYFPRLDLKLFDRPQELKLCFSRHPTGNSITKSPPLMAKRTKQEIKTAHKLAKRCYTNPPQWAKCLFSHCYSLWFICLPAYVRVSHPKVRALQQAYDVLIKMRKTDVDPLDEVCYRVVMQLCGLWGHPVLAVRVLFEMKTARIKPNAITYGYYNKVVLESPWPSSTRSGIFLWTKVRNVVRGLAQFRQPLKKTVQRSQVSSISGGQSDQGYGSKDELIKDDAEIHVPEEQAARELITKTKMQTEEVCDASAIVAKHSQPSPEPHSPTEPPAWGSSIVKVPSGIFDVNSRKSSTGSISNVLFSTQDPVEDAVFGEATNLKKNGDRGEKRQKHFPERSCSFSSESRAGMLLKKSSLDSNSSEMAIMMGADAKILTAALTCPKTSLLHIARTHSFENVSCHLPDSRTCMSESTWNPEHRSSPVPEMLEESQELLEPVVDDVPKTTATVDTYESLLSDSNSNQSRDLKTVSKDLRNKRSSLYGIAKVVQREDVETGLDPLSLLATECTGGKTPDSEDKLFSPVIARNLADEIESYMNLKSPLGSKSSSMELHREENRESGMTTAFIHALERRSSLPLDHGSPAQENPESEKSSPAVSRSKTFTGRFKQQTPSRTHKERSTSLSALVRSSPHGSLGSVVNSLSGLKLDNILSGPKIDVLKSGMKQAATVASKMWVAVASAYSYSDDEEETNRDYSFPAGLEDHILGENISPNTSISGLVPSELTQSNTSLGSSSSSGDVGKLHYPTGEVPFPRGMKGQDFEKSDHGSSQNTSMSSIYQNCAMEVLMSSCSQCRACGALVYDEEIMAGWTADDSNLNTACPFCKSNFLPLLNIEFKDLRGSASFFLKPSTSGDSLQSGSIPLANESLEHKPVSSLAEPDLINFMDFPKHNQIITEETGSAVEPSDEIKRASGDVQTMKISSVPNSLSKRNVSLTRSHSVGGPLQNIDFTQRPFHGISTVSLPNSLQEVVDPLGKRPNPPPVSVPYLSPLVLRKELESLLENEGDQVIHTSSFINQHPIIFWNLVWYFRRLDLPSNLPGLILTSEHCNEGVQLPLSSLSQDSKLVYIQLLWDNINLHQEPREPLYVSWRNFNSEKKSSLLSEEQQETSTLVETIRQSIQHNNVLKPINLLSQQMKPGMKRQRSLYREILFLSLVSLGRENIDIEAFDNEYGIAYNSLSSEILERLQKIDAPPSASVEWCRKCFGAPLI
UniProt Q8IX18: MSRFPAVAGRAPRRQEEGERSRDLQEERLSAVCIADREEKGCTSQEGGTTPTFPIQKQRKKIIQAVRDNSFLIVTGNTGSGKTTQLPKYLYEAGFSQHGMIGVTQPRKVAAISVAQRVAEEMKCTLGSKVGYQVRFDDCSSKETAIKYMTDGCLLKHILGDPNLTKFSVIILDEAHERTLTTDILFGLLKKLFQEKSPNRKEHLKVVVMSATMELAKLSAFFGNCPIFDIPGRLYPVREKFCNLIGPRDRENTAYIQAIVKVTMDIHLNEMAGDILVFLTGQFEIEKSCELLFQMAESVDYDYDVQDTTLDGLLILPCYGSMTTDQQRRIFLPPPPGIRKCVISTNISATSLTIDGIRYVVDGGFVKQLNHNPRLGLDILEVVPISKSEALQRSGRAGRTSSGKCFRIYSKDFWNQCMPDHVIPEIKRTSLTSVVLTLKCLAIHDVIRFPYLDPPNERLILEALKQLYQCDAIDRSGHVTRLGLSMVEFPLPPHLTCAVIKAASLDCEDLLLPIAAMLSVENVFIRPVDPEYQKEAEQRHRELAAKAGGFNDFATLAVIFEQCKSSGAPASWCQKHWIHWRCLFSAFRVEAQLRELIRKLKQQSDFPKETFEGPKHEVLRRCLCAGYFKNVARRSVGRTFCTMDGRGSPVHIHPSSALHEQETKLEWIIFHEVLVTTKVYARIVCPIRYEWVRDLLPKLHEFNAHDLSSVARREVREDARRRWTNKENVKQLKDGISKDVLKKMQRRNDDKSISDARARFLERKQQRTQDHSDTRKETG
UniProt Q9BTC0, 495-518: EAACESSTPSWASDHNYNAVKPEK
UniProt O75165: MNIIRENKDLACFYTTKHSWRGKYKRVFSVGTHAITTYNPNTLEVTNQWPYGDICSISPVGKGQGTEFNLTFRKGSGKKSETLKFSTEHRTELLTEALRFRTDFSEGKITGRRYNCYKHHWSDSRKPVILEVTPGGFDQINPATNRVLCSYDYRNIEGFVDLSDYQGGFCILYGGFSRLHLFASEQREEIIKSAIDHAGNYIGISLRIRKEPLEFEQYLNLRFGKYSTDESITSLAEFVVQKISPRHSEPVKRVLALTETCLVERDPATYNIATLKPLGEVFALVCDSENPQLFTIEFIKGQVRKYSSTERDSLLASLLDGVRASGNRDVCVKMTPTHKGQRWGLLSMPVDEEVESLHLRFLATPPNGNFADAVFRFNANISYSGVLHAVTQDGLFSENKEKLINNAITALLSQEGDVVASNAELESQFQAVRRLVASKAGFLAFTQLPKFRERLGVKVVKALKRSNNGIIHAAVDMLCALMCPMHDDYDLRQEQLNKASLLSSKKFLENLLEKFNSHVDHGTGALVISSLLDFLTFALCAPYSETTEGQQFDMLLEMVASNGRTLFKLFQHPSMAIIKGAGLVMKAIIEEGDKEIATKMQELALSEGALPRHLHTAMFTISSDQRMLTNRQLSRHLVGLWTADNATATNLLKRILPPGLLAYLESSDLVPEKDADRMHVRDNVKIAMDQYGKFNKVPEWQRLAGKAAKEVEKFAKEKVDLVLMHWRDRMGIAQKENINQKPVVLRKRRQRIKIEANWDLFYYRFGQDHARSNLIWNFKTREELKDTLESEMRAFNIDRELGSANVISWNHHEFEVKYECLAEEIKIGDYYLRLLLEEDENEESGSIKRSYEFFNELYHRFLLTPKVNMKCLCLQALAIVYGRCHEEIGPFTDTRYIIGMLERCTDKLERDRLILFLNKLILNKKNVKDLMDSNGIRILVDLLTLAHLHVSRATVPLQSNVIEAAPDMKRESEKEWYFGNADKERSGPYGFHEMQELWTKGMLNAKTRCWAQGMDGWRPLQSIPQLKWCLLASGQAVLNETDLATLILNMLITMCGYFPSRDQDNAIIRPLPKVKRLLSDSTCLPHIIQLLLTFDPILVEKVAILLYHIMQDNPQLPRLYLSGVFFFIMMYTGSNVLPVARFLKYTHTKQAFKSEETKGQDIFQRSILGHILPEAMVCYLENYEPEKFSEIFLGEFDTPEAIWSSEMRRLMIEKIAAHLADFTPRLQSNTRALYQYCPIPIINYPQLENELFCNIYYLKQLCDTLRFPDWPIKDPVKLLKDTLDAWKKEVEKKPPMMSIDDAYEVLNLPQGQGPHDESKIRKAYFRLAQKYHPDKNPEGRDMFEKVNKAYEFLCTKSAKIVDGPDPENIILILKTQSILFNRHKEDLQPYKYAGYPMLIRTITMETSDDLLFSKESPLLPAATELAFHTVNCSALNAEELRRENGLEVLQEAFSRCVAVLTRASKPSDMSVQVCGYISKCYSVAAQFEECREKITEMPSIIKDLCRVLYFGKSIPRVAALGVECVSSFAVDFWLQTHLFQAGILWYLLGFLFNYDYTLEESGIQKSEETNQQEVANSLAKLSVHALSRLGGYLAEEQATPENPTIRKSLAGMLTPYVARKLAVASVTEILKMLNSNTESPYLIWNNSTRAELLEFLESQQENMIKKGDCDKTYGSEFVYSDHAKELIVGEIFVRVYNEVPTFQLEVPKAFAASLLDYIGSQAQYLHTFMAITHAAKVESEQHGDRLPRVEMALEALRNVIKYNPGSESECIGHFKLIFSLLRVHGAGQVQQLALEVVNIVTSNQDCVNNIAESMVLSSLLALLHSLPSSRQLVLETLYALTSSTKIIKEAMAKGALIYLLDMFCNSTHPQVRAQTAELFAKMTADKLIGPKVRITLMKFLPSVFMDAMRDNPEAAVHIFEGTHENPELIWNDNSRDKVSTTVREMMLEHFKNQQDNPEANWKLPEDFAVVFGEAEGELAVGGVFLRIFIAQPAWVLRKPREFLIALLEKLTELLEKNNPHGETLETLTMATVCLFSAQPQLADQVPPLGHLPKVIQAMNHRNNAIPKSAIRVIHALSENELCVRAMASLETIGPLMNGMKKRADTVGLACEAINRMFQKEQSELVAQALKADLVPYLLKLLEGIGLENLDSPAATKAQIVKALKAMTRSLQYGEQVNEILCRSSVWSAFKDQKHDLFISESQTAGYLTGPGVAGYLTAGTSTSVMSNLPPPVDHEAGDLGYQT
UniProt Q5QJE6: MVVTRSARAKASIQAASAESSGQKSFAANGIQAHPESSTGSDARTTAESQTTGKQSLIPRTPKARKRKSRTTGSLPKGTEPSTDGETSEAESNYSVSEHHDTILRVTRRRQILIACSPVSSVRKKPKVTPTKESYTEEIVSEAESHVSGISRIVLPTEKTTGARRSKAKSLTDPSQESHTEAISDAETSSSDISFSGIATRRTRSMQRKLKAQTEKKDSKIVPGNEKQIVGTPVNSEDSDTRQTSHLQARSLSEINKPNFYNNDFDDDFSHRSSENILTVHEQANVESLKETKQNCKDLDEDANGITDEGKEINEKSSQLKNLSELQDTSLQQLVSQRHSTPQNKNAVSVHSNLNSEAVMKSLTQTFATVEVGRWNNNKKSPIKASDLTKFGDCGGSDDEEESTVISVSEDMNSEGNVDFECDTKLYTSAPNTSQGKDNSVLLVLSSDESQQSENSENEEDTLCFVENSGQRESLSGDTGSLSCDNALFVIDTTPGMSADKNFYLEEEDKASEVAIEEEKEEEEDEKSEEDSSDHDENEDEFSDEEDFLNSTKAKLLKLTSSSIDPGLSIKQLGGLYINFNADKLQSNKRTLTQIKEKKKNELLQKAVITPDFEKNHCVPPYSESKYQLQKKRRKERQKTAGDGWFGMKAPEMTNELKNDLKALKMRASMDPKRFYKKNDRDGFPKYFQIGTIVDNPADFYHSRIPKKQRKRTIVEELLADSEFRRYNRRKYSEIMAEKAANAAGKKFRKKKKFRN

Columns and labels:
[1] = compound: ClCC(=O)N[C@@H]1CCCc2ccccc12; assay: log2 mean competition ratio of IA-DTB cysteine labelling (DMSO/compound) (log2 ratio); higher = stronger cysteine engagement by compound; conditions: treatment time: 4 h, cell line lysate: HEK293T
Method: (§1)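 IA-DTB competitive cysteine chemoproteomics in HEK293T RIPA lysate. Lysates were treated with compound 29 or 30 at 50 or 200 µM for 4 h, then IA-DTB (500 µM, 1 h), trypsin-digested, NeutrAvidin-enriched and analysed by diaPASEF. Competition ratio = intensity DMSO / intensity compound (n=4 treated, n=64 DMSO); binding: mean log2 CR ≥ 1 and p ≤ 0.05 plus QC filters. Target is the cysteine site.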

[2] = compound: ClCC(=O)N[C@H]1CCCc2ccccc12; assay: as above; conditions: treatment time: 4 h, cell line lysate: HEK293T
Method: as §1

Row | Target | log2 mean competition ratio ([1]; 50 µM) | log2 mean competition ratio ([1]; 200 µM) | log2 mean competition ratio ([2]; 50 µM) | log2 mean competition ratio ([2]; 200 µM)
1 | DNAJC7 C7 (UniProt Q99615) | -0.406 | -0.125 | -0.313 | -0.00358
2 | DNAJC10 C186 (UniProt Q8IXB1) | -0.443 | -0.402 | -0.374 | -0.189
3 | DPYSL4 C248 | -0.371 | -0.00929 | -0.419 | 0.156
4 | DNAAF5 C138 (UniProt Q86Y56) | 0.0635 | 0.422 | 0.0528 | 0.394
5 | DIPK2A C135 (UniProt Q8NDZ4) | 0.182 | -0.138 | 0.0282 | 0.406
6 | DHX15 C750 (UniProt O43143) | -0.408 | 0.117 | -0.888 | 0.035
7 | DPY19L3 C684 (UniProt Q6ZPD9) | 0.409 | 0.405 | 0.588 | 0.0544
8 | DIS3L2 C216 (UniProt Q8IYB7) | -0.227 | -0.105 | -0.241 | -0.0485
9 | DEPDC5 C1053 (UniProt O75140) | 0.267 | 0.129 | 0.0203 | -0.103
10 | DPYSL3 C248 (UniProt Q14195) | -0.26 | -0.167 | 0.112 | -0.283
11 | DHX34 C917 (UniProt Q14147) | -0.153 | 0.161 | -0.258 | 0.147
12 | DOK1 C389 (UniProt Q99704) | 0.247 | -0.115 | 0.218 | 0.0647
13 | DIAPH1 C796 | -0.202 | 0.172 | -0.0465 | 0.184
14 | DRG1 C195 (UniProt Q9Y295) | -0.324 | -0.0281 | -0.401 | -0.205
15 | DNAJC10 C270 (UniProt Q8IXB1) | 0.0121 | 0.108 | 0.0844 | 0.191
16 | DNAJC21 C3 (UniProt Q5F1R6) | 0.484 | -0.0326 | 0.517 | 0.146
17 | DOCK7 C388 (UniProt Q96N67) | -0.248 | -0.13 | -0.177 | -0.0707
18 | DEPDC5 C966 (UniProt O75140) | 0.401 | 0.0688 | -0.222 | 0.069
19 | DFFB C194 (UniProt O76075) | 0.16 | 0.513 | 0.546 | 0.542
20 | DGCR8 C657 (UniProt Q8WYQ5) | -0.0159 | -0.247 | 0.489 | 0.239
21 | DENND4C C1045 (UniProt Q5VZ89) | -0.0416 | 0.0636 | -0.108 | 0.101
22 | DGLUCY C265 (UniProt Q7Z3D6) | -0.267 | -0.0227 | -0.128 | -0.0955
23 | DHX40 C417 (UniProt Q8IX18) | 0.0591 | 0.00842 | -0.242 | -0.266
24 | DHX30 C673 (UniProt Q7L2E3) | 0.352 | – | 0.455 | -0.162
25 | DIDO1 C498 (UniProt Q9BTC0) | -0.0718 | -0.209 | -0.148 | -0.183
26 | DGKH C139 (UniProt Q86XP1) | – | -0.0326 | -0.364 | 0.0673
27 | DNAJC13 C1770 (UniProt O75165) | 0.103 | -0.0328 | 0.0354 | -0.152
28 | DNTTIP2 C618 (UniProt Q5QJE6) | 0.616 | -0.444 | 0.339 | -0.467
29 | DHX30 C606 (UniProt Q7L2E3) | 0.0156 | -0.0632 | 0.483 | 0.226
30 | DHX34 C189 (UniProt Q14147) | 0.11 | -0.0971 | 0.252 | -0.0331

As entered above.
log2 mean competition ratio ([1]; 200 µM), DPYSL3 C248 (UniProt Q14195) reads -0.167
log2 mean competition ratio ([1]; 50 µM), DFFB C194 (UniProt O76075) reads 0.16
